The list shows a part of the results. The main result of the screen is listed elsewhere. These columns were measured beside it and carry no call. Most of these compounds were active or inconclusive in the main read-out, so they are no random draw. The note in brackets gives the kind of curve behind each potency; many fits are weak.
Assay: qHTS Assay for Lipid Storage Modulators in Drosophila S3 Cells;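 for cell number change: cells counted by Cell Tracker Red CMTPX staining in the red channel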
Conditions: BODIPY lipid droplet fluorescence, 18-24 h; for cell number change: measured here: cell count max response, cells fed with added oleic acid
In short: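 Drosophila S3 cells loaded with oleic acid (400 uM, as added) and compounds at several concentrations; lipid droplets imaged by 488-nm laser-scanning cytometry, 500–530 nm intensity and object ratio to cell channel. Percent activity normalized to 20 uM Triacsin C.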

[1] = measured here: lipid fluorescence (Fed channel) AC50, cells fed with added oleic acid
[2] = measured here: cell number channel AC50, cells fed with added oleic acid

Row | SMILES | cell number change [%] | AC50 [1] | AC50 [2]
1 | COc1ccccc1OP(=O)(Nc1ccc(Br)cc1)Oc1ccccc1OC | -23.6 | 16.4 µM [falling, single point] | 
2 | COC(=O)C1=C(c2ccc(Cl)c(C(F)(F)F)c2)C[C@@H]2CC[C@H]1N2C(=O)N1CCOCC1 | 11.1 | 0.00461 µM [rising, full curve, poor fit] | 
3 | CCOC(=O)c1c(/N=C/C2C(=O)NC(=O)NC2=O)sc2c1CCC2 | 23.1 |  | 0.092 µM [rising, full curve, poor fit]
4 | CCC1(CCCC(=O)c2ccc(F)cc2)C(=O)NC(=S)NC1=O | 2.69 | 0.731 µM [falling, single point] | 
5 | Cc1cc(C(=O)C[N+]23CCN(CC2)CC3)c(C)n1-c1ccc(Br)cc1 | -24.7 | 1.64 µM [falling, partial curve] | 
6 | CCN1CCN(c2ccc(N)c(C)c2)CC1 | 40.3 |  | 29.1 µM [rising, single point]
7 | CCCNC(=O)c1c(N)n(Cc2ccco2)c2nc3ccccc3nc12 | -15.5 | 3.66 µM [rising, full curve] | 
8 | CC(=O)Nc1ccc(OC(=O)N(C)c2ccc(C)cc2)cc1 | -8.81 |  | 
9 | CC(=O)O[C@@]12CO[C@@H]1C[C@H](OC1OCC(O)C(O)C1O)[C@@]1(C)C(=O)[C@H](O)C3=C(C)[C@@H](OC(=O)[C@H](O)[C@@H](NC(=O)c4ccccc4)c4ccccc4)C[C@@](O)([C@@H](OC(=O)c4ccccc4)C12)C3(C)C (stereo partly specified) | -12.9 |  | 
10 | Cc1cc(C(=O)Nc2ccc3c(c2)OCCO3)nn1C(C)(C)C | 22.8 | 13 µM [rising, partial curve] | 
11 | COc1cc(Cc2ccc(N)c(OC)c2)ccc1N |  |  | 4.61 µM [rising, partial curve]
12 | O=P(O)(CN1CCCCC1)CN1CCCCC1 |  |  | 25.9 µM [falling, partial curve]
13 | Cc1ccc2c(c1)CC1(CN2C)C(=O)NC(=O)N(c2cccc(C)c2C)C1=O (stereo unspecified) |  |  | 0.326 µM [rising, full curve]
14 | Cn1c(O)c(Cc2cccc(Cl)c2Cl)c(=O)n(C)c1=O | 32.6 |  | 32.6 µM [rising, single point]
15 | CN1CC2([N+](=O)[O-])CC=C(Cl)C([N+](=O)[O-])(C1)C2 (stereo unspecified) | 78 |  | 4.11 µM [falling, single point]
16 | O=Cc1cc(Br)c(OC(=O)N2CCOCC2)c(Br)c1 |  |  | 32.6 µM [falling, single point]
17 | CCCCCn1c(=O)c(C(=O)NCCc2ccccc2)c(O)c2ccccc21 | 22.6 |  | 
18 | c1ccc(-c2nc(N3CCOCC3)s[n+]2-c2ccccc2)cc1 | -16.6 | 29.1 µM [falling, single point] | 
19 | COC(=O)C1=C(c2cccc(C#N)c2)C[C@@H]2CC[C@H]1N2C(=O)NCCc1ccccc1 | -11.1 | 23.1 µM [rising, single point] | 

By substructure: those above with an aryl methoxy group
Row | SMILES | cell number change [%] | AC50 [1] | AC50 [2]
1 | COc1ccccc1OP(=O)(Nc1ccc(Br)cc1)Oc1ccccc1OC | -23.6 | 16.4 µM [falling, single point] | 
11 | COc1cc(Cc2ccc(N)c(OC)c2)ccc1N |  |  | 4.61 µM [rising, partial curve]

Following part.

Row | SMILES | cell number change [%] | AC50 [1] | AC50 [2]
20 | CC(=O)OC[C@]12CCC(C)=C[C@H]1O[C@@H]1[C@H](O)[C@@H](OC(C)=O)[C@@]2(C)[C@]12CO2 | -44.7 | 0.0206 µM [falling, full curve] | 0.0517 µM [falling, full curve]
21 | O=C1NC(=O)C2(Cc3ccccc3N3CCOCC32)C(=O)N1c1ccccc1 (stereo unspecified) | 5.19 | 0.731 µM [falling, full curve] | 0.731 µM [falling, full curve]
22 | CN1CCN(c2ccc(NC(=O)Oc3ccccc3)cc2)CC1 | -47.9 | 11.6 µM [falling, partial curve] | 
23 | O=c1oc2cccnc2n1CCS(=O)(=O)c1ccc(F)cc1 |  |  | 0.0517 µM [falling, partial curve, poor fit]
24 | O=C(c1ccco1)c1cn(Cc2ccccc2)c2ccccc12 | 87.3 | 6.51 µM [rising, single point] | 16.4 µM [rising, partial curve]
25 | Brc1ccc(C2N3CCCN23)cc1 (stereo unspecified) |  |  | 0.103 µM [rising, full curve, poor fit]
26 | c1ccc2oc(N3CCNCC3)nc2c1 | 37.9 | 2.06 µM [rising, partial curve] | 2.06 µM [rising, full curve]
27 | O=C(N/N=C/c1c(O)n(-c2ccccc2)c(=S)[nH]c1=O)c1ccccc1 | 36.3 | 14.6 µM [rising, partial curve, poor fit] | 4.61 µM [rising, partial curve]
28 | CCCC/C(=N/O)c1c(C)[nH]c2ccccc12 | -6.03 |  | 
29 | C[N+]12CCC(CC1)C(C(O)(c1ccccc1)c1cccs1)C2 (stereo unspecified) | -17.7 | 0.731 µM [falling, full curve] | 
30 | COC(=O)C1=C(c2cccc(OCc3ccccc3)c2)C[C@@H]2CC[C@H]1N2C(=O)NCc1ccccc1 | 4.11 | 29.1 µM [falling, single point] | 
31 | COC(=O)C1=C(c2ccc(C(C)=O)cc2)C[C@@H]2CC[C@H]1N2C(=O)NCCNC(C)=O | -2.7 | 3.26 µM [rising, partial curve, poor fit] | 0.164 µM [falling, full curve, poor fit]
32 | c1ccc(Nc2ccc(Nc3ccccc3)cc2)cc1 | -16.5 | 0.116 µM [rising, single point] | 0.326 µM [falling, partial curve, poor fit]
33 | O=c1[nH]c(Cl)ccc1CN1CCOCC1 | -1.97 | 10.3 µM [rising, partial curve] | 
34 | Nc1ccc([N+](=O)[O-])cc1 | -6.44 | 0.206 µM [rising, full curve, poor fit] | 
35 | O=P(OCC(F)(F)C(F)F)(N1CCOCC1)N1CCOCC1 | 8.55 | 3.66 µM [falling, partial curve, poor fit] | 
36 | COC(=O)c1cccc(NC(=O)N2C[C@H]3C[C@@H](C2)c2cccc(=O)n2C3)c1 | -9.12 |  | 
37 | FCCN(CCF)c1cccc(Cl)c1 | 11 |  | 3.66 µM [rising, single point]
38 | O=C(CCC(=O)N1C[C@H]2C[C@@H](C1)c1cccc(=O)n1C2)NCc1ccccc1C(F)(F)F |  | 14.6 µM [rising, partial curve, poor fit] | 
